Where “and” joins values, the source holds several entries; their conditions need not be identical. Equal values may be shown once. Screen size: about 580,000 compounds; about 6,100 (1.1%) were called active. Inconclusive means that the source gave no clear call. Such entries were picked first, then a sample of the others. Calls follow the shape of the dose curve; as a rule, active = well fitted inhibition curve with a large enough effect; inconclusive = small, poorly fitted or top-dose-only effect, or another doubt; inactive = no such curve, though single readings can be large or run the other way. Potencies beside an inconclusive call are fits to weak or partial responses and may not hold up.
What follows are molecules tested against Polyunsaturated fatty acid lipoxygenase ALOX12 (Homo sapiens) (UniProt P18054) (assay: Primary qHTS assay for inhibitors of human arachidonate 12S-lipoxygenase (ALOX12): Round 2). Details: purified 12hLO, xylenol orange hydroperoxide absorbance; activity change, negative = inhibition: at 108 µM (top of the series) unless noted.
Summary of the method: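 Purified human 12hLO at 150 nM in 25 mM Hepes, 0.01% Triton X-100, pH 7.0, preincubated 15 min at room temperature with compound. Reaction started with 40 uM arachidonic acid, 30 min at room temperature. Hydroperoxide measured by Fe-xylenol orange, 573/405 nm absorbance ratio.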
% is scaled to controls: 0 for no effect and ±100 for the full control effect; potency is read from the fitted curve at half-maximal effect.

By UniProt entry, the sequences of proteins in these tests, tags left out. Where a name states a change or a piece, a line headed by the entry shows the natural chain unless it says otherwise.
UniProt P18054: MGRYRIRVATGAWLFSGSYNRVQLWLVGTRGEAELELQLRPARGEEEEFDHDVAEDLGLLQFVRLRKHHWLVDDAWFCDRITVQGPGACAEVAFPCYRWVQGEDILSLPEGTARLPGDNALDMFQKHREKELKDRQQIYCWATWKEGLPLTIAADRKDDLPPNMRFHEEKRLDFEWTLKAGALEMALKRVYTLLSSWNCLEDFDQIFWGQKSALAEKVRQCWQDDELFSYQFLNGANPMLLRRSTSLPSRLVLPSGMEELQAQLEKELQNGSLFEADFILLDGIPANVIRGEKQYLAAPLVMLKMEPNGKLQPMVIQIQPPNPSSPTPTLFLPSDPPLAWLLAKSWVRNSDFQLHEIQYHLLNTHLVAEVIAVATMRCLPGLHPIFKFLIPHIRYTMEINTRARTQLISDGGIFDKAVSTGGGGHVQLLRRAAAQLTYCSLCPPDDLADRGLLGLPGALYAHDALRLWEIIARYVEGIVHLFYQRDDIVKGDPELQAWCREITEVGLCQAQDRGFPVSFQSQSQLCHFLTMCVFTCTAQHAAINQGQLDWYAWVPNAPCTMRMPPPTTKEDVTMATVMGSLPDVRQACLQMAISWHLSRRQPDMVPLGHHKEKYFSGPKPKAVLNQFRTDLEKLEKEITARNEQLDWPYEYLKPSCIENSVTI

SMILES | activity change, negative = inhibition | Potency
CN(C)C(=O)c1ccc(NC(=O)c2ccccc2CSc2nc3ccccc3o2)cc1 | inactive: 5.15% | 
O=[N+]([O-])c1ccccc1C(=Nc1ccccc1)c1c(O)cc(O)cc1O |  | active: 44.7 µM
CCOc1c(Br)cc(CNc2ccc(N3CCN(C(C)=O)CC3)cc2)cc1OC |  | inconclusive: 126 µM [inhibitor, single point]
O=C(Cn1c(=O)oc2cc(S(=O)(=O)N3CCCC3)ccc21)NCc1ccc(Cl)cc1 |  | inconclusive: 89.1 µM [inhibitor, partial curve, poor fit]
CSc1ccc(COC(=O)Cc2c[nH]c3ccccc23)cc1 |  | inconclusive: 22.4 µM [inhibitor, partial curve, poor fit]
COCC(=O)N(C1CCOCC1)C1CCN(C(=O)Cc2ccc(C)cc2)CC1 | inactive: 46.5% | 
O=C(c1cnccn1)N1CCC2(CC1)CCN(c1ccccc1)CC2 |  | inconclusive: 35.5 µM [inhibitor, single point]
COc1ccc(NC(C)C(=O)Nc2cccc(S(=O)(=O)N3CCOCC3)c2)cc1OC (stereo unspecified) | inactive: 0% | 
COC(=O)c1[nH]c2ccc(C)cc2c1NC(=O)c1ccccc1F |  | inconclusive: 70.8 µM [inhibitor, partial curve, poor fit]
COC(=O)C(=Cc1ccc(OCc2ccc([N+](=O)[O-])cc2)c(OC)c1)C(=O)OC | inactive: 14.9% | 
O=C(NCCc1nc2ccccc2s1)[C@H]1CNC[C@@H](C(=O)N2CCOCC2)C1 |  | inconclusive: 79.4 µM [inhibitor, partial curve, poor fit]
CCCC(=O)OCc1cc(=O)oc2cc(O)ccc12 |  | inconclusive: 56.2 µM [inhibitor, partial curve, poor fit]
O=C(COC(=O)C1CCN(c2ccc(C(F)(F)F)cn2)CC1)Nc1ccc(Cl)cn1 |  | inconclusive: 6.31 µM [inhibitor, full curve, poor fit]
CCCCn1nc(C(=O)Nc2ccc3nc(N4CCOCC4)sc3c2)c2ccccc2c1=O |  | inconclusive: 50.1 µM [inhibitor, single point]
Cc1cc(C)c2c(N)c(-c3ccc(C#N)cc3)sc2n1 |  | active: 3.98 µM
CCN(CC)S(=O)(=O)c1ccc2c(c1)nc(-c1ccccn1)n2C |  | inconclusive: 44.7 µM [inhibitor, partial curve, poor fit]
CC(C)[C@H](NC(=O)c1c(F)cccc1F)C(=O)OCc1ccc(C(N)=O)cc1 | inactive: -18.5% | 
Cc1ncc(CO)c2c1Oc1nc(-c3ccccc3)nc(SCC(=O)N3CCCCC3)c1C2 |  | inactive and inconclusive: 50.1 µM [inhibitor, partial curve, poor fit]
COc1ccc(NC(=O)c2ccccc2NC(=O)c2ccccc2C(=O)O)c(OC)c1 |  | inconclusive: 25.1 µM [inhibitor, partial curve, poor fit]
COc1ccc(Cl)cc1Nc1nc(N)c2ccccc2n1 | inactive: 19.4% | 
O=[N+]([O-])c1cccnc1NCCNc1ncc(C(F)(F)F)cc1Cl |  | inconclusive: 89.1 µM [inhibitor, single point]

One compound at a time, from the list above:
CCN(CC)S(=O)(=O)c1ccc2c(c1)nc(-c1ccccn1)n2C is entered as Potency: inconclusive: 44.7 µM [inhibitor, partial curve, poor fit]
CSc1ccc(COC(=O)Cc2c[nH]c3ccccc23)cc1 is entered as Potency: inconclusive: 22.4 µM [inhibitor, partial curve, poor fit]

Remaining list, next part:

SMILES | activity change, negative = inhibition | Potency
CCN(C[C@H]1N[C@@](CC)(C(=O)OC)[C@H]2C(=O)N(C)C(=O)[C@@H]12)C(=O)c1ccc(C(C)(C)C)cc1 |  | inconclusive: 100 µM [inhibitor, partial curve, poor fit]
O=C(NCCNC(=O)c1cc2ccccc2[nH]1)C(=O)Nc1cccc2ccccc12 |  | inconclusive: 14.1 µM [inhibitor, partial curve, poor fit]
CC(C)c1ccccc1NC(=S)NCCc1ccc(Cl)cc1 |  | inconclusive: 35.5 µM [inhibitor, partial curve, poor fit]
CC(C)CC(=O)Nc1cccc(C(=O)Nc2ccc(C(=O)O)cc2)c1 | inactive: 4.65% | 
O=C(Cc1ccc2c(c1)CCC2)Nc1ccc(-c2nccs2)cc1 |  | inconclusive: 2.82 µM [inhibitor, full curve, poor fit]
Oc1ccc(-n2nnnc2SCc2cc(Cl)c3c(c2)OCCO3)cc1 |  | inconclusive: 44.7 µM [inhibitor, partial curve, poor fit]
Cn1c(Cn2c(=O)sc3ccccc32)nnc1SCC(=O)NC1CCCC1 | inactive: 439% | 
Cc1cccc(Oc2nc3c(c(=O)n(C)c(=O)n3C)n2Cc2ccccc2F)c1 |  | inconclusive: 100 µM [inhibitor, partial curve, poor fit]
COC(=O)c1ccc(COC(=O)c2ccc3ccccc3n2)o1 |  | inconclusive: 3.98 µM [inhibitor, full curve, poor fit]
O=C(C[C@@H]1CC[C@H](NC(=O)c2ccc3c(c2)OCO3)[C@@H](CO)O1)NCc1ccc(F)cc1 |  | inconclusive: 56.2 µM [inhibitor, partial curve, poor fit]
Cc1cccc(C(=O)NC(NCCc2ccccc2)C(Cl)(Cl)Cl)c1 (stereo unspecified) | inactive: 0% | 
COc1cc(NS(=O)(=O)c2ccc(NC(=O)C3CCCO3)cc2)nc(OC)n1 (stereo unspecified) |  | inconclusive: 15.8 µM [inhibitor, full curve, poor fit]
COc1ccc(-c2cc(C(=O)N3CCCCCC3)c3ccccc3n2)c(OC)c1 |  | inconclusive: 39.8 µM [inhibitor, partial curve, poor fit]
O=C(c1ccccc1Cl)N1CCC(c2nc3ccccc3s2)CC1 | inactive: -13.2% | 
CCn1c(O)c(C#N)c(C)cc1=O |  | inconclusive: 31.6 µM [inhibitor, partial curve, poor fit]
CC(C)c1ccc(NC(=O)C(c2ccccc2)N2CCC3(CC2)OCCO3)cc1 (stereo unspecified) |  | inconclusive: 100 µM [inhibitor, partial curve, poor fit]
COc1ccccc1OCCNC(=O)CCC(=O)N1CCOCC1 |  | inconclusive: 112 µM [inhibitor, single point]
COc1cc(CNC(=O)c2ccc3c(c2)N(C)C2CCCN2C3=O)cc(OC)c1 (stereo unspecified) | inactive: 44.4% | 
CN1CCCCC1CCN1c2ccccc2Sc2ccc(S(C)=O)cc21 (stereo unspecified) |  | inconclusive: 4.47 µM [inhibitor, full curve, poor fit]
Cc1ccc(/C(O)=C2/C(=O)C(=O)N(Cc3ccco3)C2c2cccs2)cc1 (stereo unspecified) |  | inconclusive: 14.1 µM [inhibitor, full curve, poor fit]
